Data on 23 substances can be found in PMC9402538 (Nature Communications, 2022).

HELM strings list residues between dots; [ac] is acetyl, [am] amide, other brackets name non-standard units.

The nature of the series: general procedure: Fmoc solid-phase peptide synthesis; Fmoc-Amide AM Resin (0.35 mmol/g, 572mg) for peptides; Rink Amide-MBHA resin (0.646 mmol/g, 100mg) for tracers; HBTU or PyBOP with DIPEA (peptides); DIC/HOBt (tracers). To be noted: whole synthesis; for final HPLC purity: analytical RP-HPLC.

On to “(4S,7S,10S,13S,16S)-4-carbamoyl-7-(4-hydroxybenzyl)-13-(hydroxymethyl)-10-isobutyl-6,9,12,15-tetraoxo-16-(2-((S)-2-(thiop-hene-2-carboxamido)propanamido)acetamido)-5,8,11,14-tetraazanonadecanedioic acid”, for which the isolated yield is reported as 12.5% and the “final HPLC purity” value is listed as 98.4%.
For “PEPTIDE1{[1-AdCO].A.G.E.S.L.Y.E.[am]}$$$$V2.0” the same measures were 15% and 98.7%.
For “PEPTIDE1{[3-MPA].A.G.E.S.L.Y.E.[am]}$$$$V2.0” the same measures were 12% and 98.6%.
“PEPTIDE1{[4-MeBz].A.G.E.S.L.Y.E.[am]}$$$$V2.0”: the isolated yield came out at 11.8%.
For “PEPTIDE1{[4MeOBz].A.G.E.S.L.Y.E.[am]}$$$$V2.0”, the isolated yield came out at 12.7% and the “final HPLC purity” value is recorded as 98.6%.
With “PEPTIDE1{[4MeOBz].A.G.E.S.L.Y.[Bpa].[am]}$$$$V2.0”, the isolated yield was 9.8% and the “final HPLC purity” value is 98.1%.
With “PEPTIDE1{[4MeOBz].A.G.E.S.L.Y.[Phe4tBu].[am]}$$$$V2.0”, the isolated yield stood at 13.3% and the “final HPLC purity” value is 98.3%.
Taken in the same sequence, the figures for “PEPTIDE1{[4MeOBz].A.G.E.S.[Cha].Y.E.[am]}$$$$V2.0” were 13.2% and 98.4%.
“PEPTIDE1{[4MeOBz].A.G.E.S.[cPenAla].Y.E.[am]}$$$$V2.0”: the isolated yield is recorded as 13.5% and the “final HPLC purity” value is 98.1%.
As to “PEPTIDE1{[4MeOBz].A.G.E.S.[cPrAla].Y.E.[am]}$$$$V2.0”, the isolated yield is given as 12.8% and the “final HPLC purity” value came out at 98.4%.
Take “PEPTIDE1{[4MeOBz].A.G.E.S.[hLeu].Y.E.[am]}$$$$V2.0”: the isolated yield was found to be 13% and the “final HPLC purity” value turned out to be 98.6%.
For “PEPTIDE1{[Acryloyl].A.G.E.S.L.Y.E.[am]}$$$$V2.0” the same measures were 12% and 98.1%.
Taken in the same sequence, the figures for “PEPTIDE1{[Bz].A.G.E.S.L.Y.E.[am]}$$$$V2.0” were 12.6% and 98.8%.
As to “PEPTIDE1{[Furan-2-CO].A.G.E.S.L.Y.E.[am]}$$$$V2.0”, the isolated yield came to 11.6% and the “final HPLC purity” value is given as 98.5%.
For “PEPTIDE1{[NMePyrrole2CO].A.G.E.S.L.Y.E.[am]}$$$$V2.0”, the isolated yield is recorded as 12% and the “final HPLC purity” value was found to be 98.3%.
Taken in the same sequence, the figures for “PEPTIDE1{[Nicotinoyl].A.G.E.S.L.Y.E.[am]}$$$$V2.0” were 12.6% and 98.1%.
As for “PEPTIDE1{[Picolinoyl].A.G.E.S.L.Y.E.[am]}$$$$V2.0”, the isolated yield was 14% and the “final HPLC purity” value amounted to 98.5%.
For “PEPTIDE1{[Pyrrole2CO].A.G.E.S.L.Y.E.[am]}$$$$V2.0” the same measures were 11.6% and 98.5%.
For “PEPTIDE1{[Thiazole-5-CO].A.G.E.S.L.Y.E.[am]}$$$$V2.0” the same measures were 15.1% and 98.7%.
Taken in the same sequence, the figures for “PEPTIDE1{[ac].[gAA_Leu_Ms].[gAA_Phe_Ms].[gAA_Glu_ClPhS].[gAA_Trp_Ms].[gAA_Lys_Ms].[gAA_Leu_iBuS].[gAA_Ala_Ms].[am]}$$$$V2.0” were 23.2% and 99.0%.
As to “PEPTIDE1{[cHexCO].A.G.E.S.L.Y.E.[am]}$$$$V2.0”, the isolated yield was determined as 16% and the “final HPLC purity” value was found to be 98.8%.
Consider “PEPTIDE1{[cPentCO].A.G.E.S.L.Y.E.[am]}$$$$V2.0”, for which the isolated yield is 12% and the “final HPLC purity” value is reported as 98.2%.
“PEPTIDE1{[iNic].A.G.E.S.L.Y.E.[am]}$$$$V2.0”: the isolated yield stood at 14.3% and the “final HPLC purity” value stood at 98.2%.
